{"sequences": {"note": "Amino acid sequences for entries named in this document (tags omitted).", "UniProt Q92973": "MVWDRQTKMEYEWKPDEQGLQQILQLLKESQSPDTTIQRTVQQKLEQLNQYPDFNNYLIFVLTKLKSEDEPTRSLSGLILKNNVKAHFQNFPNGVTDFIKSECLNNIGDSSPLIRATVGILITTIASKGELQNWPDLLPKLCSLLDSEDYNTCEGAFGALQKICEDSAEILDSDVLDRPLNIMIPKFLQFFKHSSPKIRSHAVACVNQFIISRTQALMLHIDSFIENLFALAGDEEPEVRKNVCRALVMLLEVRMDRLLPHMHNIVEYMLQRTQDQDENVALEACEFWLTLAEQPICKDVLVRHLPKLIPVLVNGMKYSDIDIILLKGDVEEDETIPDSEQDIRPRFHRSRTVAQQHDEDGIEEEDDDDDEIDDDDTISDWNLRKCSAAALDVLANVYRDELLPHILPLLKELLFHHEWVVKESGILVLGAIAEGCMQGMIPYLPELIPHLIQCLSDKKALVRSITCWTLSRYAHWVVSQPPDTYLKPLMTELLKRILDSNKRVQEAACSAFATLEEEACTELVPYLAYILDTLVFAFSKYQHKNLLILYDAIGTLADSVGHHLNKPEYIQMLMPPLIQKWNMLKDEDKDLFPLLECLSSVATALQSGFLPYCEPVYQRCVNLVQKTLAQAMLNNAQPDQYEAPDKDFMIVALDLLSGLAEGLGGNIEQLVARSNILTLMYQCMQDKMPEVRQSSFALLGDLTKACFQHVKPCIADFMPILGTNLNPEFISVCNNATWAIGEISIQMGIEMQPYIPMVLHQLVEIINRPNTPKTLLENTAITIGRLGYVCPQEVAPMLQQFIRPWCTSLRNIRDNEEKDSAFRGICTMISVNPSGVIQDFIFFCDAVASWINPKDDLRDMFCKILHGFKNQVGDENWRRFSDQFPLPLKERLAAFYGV", "UniProt P42338": "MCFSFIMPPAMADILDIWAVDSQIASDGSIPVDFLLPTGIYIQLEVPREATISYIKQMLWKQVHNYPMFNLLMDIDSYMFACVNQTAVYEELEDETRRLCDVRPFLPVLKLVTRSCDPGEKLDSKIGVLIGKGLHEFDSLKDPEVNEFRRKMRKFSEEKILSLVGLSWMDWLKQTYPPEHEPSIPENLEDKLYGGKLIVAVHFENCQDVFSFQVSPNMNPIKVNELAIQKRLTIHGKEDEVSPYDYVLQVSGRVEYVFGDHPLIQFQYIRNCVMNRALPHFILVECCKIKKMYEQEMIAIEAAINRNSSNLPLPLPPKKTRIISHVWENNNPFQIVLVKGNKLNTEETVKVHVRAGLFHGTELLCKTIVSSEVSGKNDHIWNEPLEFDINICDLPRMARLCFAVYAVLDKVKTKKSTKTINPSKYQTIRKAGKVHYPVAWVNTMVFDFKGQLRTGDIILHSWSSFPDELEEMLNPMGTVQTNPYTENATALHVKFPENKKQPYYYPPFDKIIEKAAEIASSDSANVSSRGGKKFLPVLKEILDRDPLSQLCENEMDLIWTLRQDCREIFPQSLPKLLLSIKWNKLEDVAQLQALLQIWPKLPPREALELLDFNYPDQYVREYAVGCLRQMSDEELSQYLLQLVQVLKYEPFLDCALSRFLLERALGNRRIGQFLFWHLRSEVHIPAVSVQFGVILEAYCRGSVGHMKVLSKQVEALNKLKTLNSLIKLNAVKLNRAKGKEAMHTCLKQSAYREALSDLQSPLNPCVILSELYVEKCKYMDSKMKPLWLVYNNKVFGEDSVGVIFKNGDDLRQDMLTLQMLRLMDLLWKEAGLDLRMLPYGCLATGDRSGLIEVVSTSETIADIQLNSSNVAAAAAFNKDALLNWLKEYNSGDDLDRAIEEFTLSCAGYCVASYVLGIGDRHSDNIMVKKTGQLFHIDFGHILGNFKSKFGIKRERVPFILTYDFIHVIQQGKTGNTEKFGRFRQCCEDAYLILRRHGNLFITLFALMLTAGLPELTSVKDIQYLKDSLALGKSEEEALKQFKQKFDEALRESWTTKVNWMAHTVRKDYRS"}, "source": "paper PMC5725448", "key": {"[1]": {"target": "epidermal growth factor receptor (EGFR) (human (endogenous in A431, HEK-293T, LN18)) (UniProt P00533)", "experiment": "affinity purification with mass spectrometry; endogenous EGFR immunopurified with Cetuximab on magnetic protein G Dynabeads from lysates of A431 cells serum starved and stimulated with EGF (100 ng/ml) for 5 min; 2 h 30 min at 4 °C; LC-MS/MS; three replicates; control mouse IgG"}, "[2]": {"target": "T1, RanBP6-V5 (doxycycline-inducible V5-tagged RanBP6) (human) (UniProt O60518)", "T1 sequence": "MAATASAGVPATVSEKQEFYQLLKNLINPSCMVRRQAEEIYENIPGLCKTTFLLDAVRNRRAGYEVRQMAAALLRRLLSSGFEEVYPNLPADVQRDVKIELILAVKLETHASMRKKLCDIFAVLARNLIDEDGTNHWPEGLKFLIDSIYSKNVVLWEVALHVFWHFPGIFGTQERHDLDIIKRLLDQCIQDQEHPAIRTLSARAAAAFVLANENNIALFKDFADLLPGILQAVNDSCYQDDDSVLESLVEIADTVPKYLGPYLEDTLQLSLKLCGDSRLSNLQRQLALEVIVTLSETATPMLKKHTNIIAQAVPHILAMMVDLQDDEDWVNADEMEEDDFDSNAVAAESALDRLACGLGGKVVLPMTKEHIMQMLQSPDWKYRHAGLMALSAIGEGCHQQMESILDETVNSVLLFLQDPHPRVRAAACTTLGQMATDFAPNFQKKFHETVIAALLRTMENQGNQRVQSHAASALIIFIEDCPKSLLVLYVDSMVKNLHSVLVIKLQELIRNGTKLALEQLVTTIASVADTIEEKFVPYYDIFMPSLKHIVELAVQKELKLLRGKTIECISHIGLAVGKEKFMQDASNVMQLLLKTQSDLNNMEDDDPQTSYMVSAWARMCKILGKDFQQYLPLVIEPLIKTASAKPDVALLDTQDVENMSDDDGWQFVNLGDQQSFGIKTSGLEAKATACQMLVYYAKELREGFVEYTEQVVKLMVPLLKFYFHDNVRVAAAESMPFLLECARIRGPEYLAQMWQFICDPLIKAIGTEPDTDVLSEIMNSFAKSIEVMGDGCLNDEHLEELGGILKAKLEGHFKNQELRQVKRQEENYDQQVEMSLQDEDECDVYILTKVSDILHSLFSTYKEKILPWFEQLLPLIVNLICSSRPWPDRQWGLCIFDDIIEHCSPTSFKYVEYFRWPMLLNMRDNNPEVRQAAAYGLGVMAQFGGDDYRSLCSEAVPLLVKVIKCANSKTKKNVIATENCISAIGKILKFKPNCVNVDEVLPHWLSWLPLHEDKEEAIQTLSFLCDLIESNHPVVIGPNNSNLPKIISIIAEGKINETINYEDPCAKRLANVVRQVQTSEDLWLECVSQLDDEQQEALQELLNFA", "experiment": "affinity purification with mass spectrometry; RanBP6-V5 purified on anti-V5 agarose affinity gel overnight from lysates of serum-starved A431 Dox-inducible RanBP6-V5 cells, eluted with V5 peptide; LC-MS/MS; four replicates; control A431 parental cells"}}, "note": "No constants are given. Whether binding was seen depends on the method and setting. In cells and extracts the contact can be indirect. A yes stands for co-enrichment or nearness to the bait. Other partners may have been found. For some assays here: Where a sequence is shown, tags or fusion partners need not be part of it."}
{"molecule": "Sec61α1 (from UniProt P61619 1-476)", "values": [{"measurement": "binding", "setting": "[1]", "result": "binds"}, {"measurement": "binding", "setting": "[2]", "result": "binds"}]}
{"molecule": "exportin-1 (XPO1/CRM1) (from UniProt O14980 1-1071)", "values": [{"measurement": "binding", "setting": "[1]", "result": "binds"}, {"measurement": "binding", "setting": "[2]", "result": "binds"}]}
{"molecule": "transportin-1 (from UniProt Q92973 1-898)", "values": [{"measurement": "binding", "setting": "[1]", "result": "binds"}]}
{"molecule": "importin subunit β-1 (from UniProt Q14974 1-876)", "values": [{"measurement": "binding", "setting": "[1]", "result": "binds"}]}
{"molecule": "epidermal growth factor receptor (EGFR) (from UniProt P00533 25-1210)", "values": [{"measurement": "binding", "setting": "[2]", "result": "binds"}]}
{"molecule": "phosphatidylinositol 4,5-bisphosphate 3-kinase catalytic subunit β isoform (PIK3CB) (from UniProt P42338 1-1070) (enzyme)", "values": [{"measurement": "binding", "setting": "[1]", "result": "binds"}]}
{"molecule": "transportin-2 (protein, UniProt O14787 1-897) MDWQPDEQGLQQVLQLLKDSQSPNTATQRIVQDKLKQLNQFPDFNNYLIFVLTRLKSEDEPTRSLSGLILKNNVKAHYQSFPPPVADFIKQECLNNIGDASSLIRATIGILITTIASKGELQMWPELLPQLCNLLNSEDYNTCEGAFGALQKICEDSSELLDSDALNRPLNIMIPKFLQFFKHCSPKIRSHAIACVNQFIMDRAQALMDNIDTFIEHLFALAVDDDPEVRKNVCRALVMLLEVRIDRLIPHMHSIIQYMLQRTQDHDENVALEACEFWLTLAEQPICKEVLASHLVQLIPILVNGMKYSEIDIILLKGDVEEDEAVPDSEQDIKPRFHKSRTVTLPHEAERPDGSEDAEDDDDDDALSDWNLRKCSAAALDVLANVFREELLPHLLPLLKGLLFHPEWVVKESGILVLGAIAEGCMQGMVPYLPELIPHLIQCLSDKKALVRSIACWTLSRYAHWVVSQPPDMHLKPLMTELLKRILDGNKRVQEAACSAFATLEEEACTELVPYLSYILDTLVFAFGKYQHKNLLILYDAIGTLADSVGHHLNQPEYIQKLMPPLIQKWNELKDEDKDLFPLLECLSSVATALQSGFLPYCEPVYQRCVTLVQKTLAQAMMYTQHPEQYEAPDKDFMIVALDLLSGLAEGLGGHVEQLVARSNIMTLLFQCMQDSMPEVRQSSFALLGDLTKACFIHVKPCIAEFMPILGTNLNPEFISVCNNATWAIGEICMQMGAEMQPYVQMVLNNLVEIINRPNTPKTLLENTGRLTSPSAIPAITIGRLGYVCPQEVAPMLQQFIRPWCTSLRNIRDNEEKDSAFRGICMMIGVNPGGVVQDFIFFCDAVASWVSPKDDLRDMFYKILHGFKDQVGEDNWQQFSEQFPPLLKERLAAFYGV", "values": [{"measurement": "binding", "setting": "[1]", "result": "binds"}]}
{"molecule": "Ran-binding protein 6 (RanBP6), endogenous (protein, UniProt O60518 1-1105) MAATASAGVPATVSEKQEFYQLLKNLINPSCMVRRQAEEIYENIPGLCKTTFLLDAVRNRRAGYEVRQMAAALLRRLLSSGFEEVYPNLPADVQRDVKIELILAVKLETHASMRKKLCDIFAVLARNLIDEDGTNHWPEGLKFLIDSIYSKNVVLWEVALHVFWHFPGIFGTQERHDLDIIKRLLDQCIQDQEHPAIRTLSARAAAAFVLANENNIALFKDFADLLPGILQAVNDSCYQDDDSVLESLVEIADTVPKYLGPYLEDTLQLSLKLCGDSRLSNLQRQLALEVIVTLSETATPMLKKHTNIIAQAVPHILAMMVDLQDDEDWVNADEMEEDDFDSNAVAAESALDRLACGLGGKVVLPMTKEHIMQMLQSPDWKYRHAGLMALSAIGEGCHQQMESILDETVNSVLLFLQDPHPRVRAAACTTLGQMATDFAPNFQKKFHETVIAALLRTMENQGNQRVQSHAASALIIFIEDCPKSLLVLYVDSMVKNLHSVLVIKLQELIRNGTKLALEQLVTTIASVADTIEEKFVPYYDIFMPSLKHIVELAVQKELKLLRGKTIECISHIGLAVGKEKFMQDASNVMQLLLKTQSDLNNMEDDDPQTSYMVSAWARMCKILGKDFQQYLPLVIEPLIKTASAKPDVALLDTQDVENMSDDDGWQFVNLGDQQSFGIKTSGLEAKATACQMLVYYAKELREGFVEYTEQVVKLMVPLLKFYFHDNVRVAAAESMPFLLECARIRGPEYLAQMWQFICDPLIKAIGTEPDTDVLSEIMNSFAKSIEVMGDGCLNDEHLEELGGILKAKLEGHFKNQELRQVKRQEENYDQQVEMSLQDEDECDVYILTKVSDILHSLFSTYKEKILPWFEQLLPLIVNLICSSRPWPDRQWGLCIFDDIIEHCSPTSFKYVEYFRWPMLLNMRDNNPEVRQAAAYGLGVMAQFGGDDYRSLCSEAVPLLVKVIKCANSKTKKNVIATENCISAIGKILKFKPNCVNVDEVLPHWLSWLPLHEDKEEAIQTLSFLCDLIESNHPVVIGPNNSNLPKIISIIAEGKINETINYEDPCAKRLANVVRQVQTSEDLWLECVSQLDDEQQEALQELLNFA", "values": [{"measurement": "binding", "setting": "[1]", "result": "binds"}]}
{"molecule": "nuclear pore complex protein Nup93 (protein, UniProt Q8N1F7 1-819) MDTEGFGELLQQAEQLAAETEGISELPHVERNLQEIQQAGERLRSRTLTRTSQETADVKASVLLGSRGLDISHISQRLESLSAATTFEPLEPVKDTDIQGFLKNEKDNALLSAIEESRKRTFGMAEEYHRESMLVEWEQVKQRILHTLLASGEDALDFTQESEPSYISDVGPPGRSSLDNIEMAYARQIYIYNEKIVNGHLQPNLVDLCASVAELDDKSISDMWTMVKQMTDVLLTPATDALKNRSSVEVRMEFVRQALAYLEQSYKNYTLVTVFGNLHQAQLGGVPGTYQLVRSFLNIKLPAPLPGLQDGEVEGHPVWALIYYCMRCGDLLAASQVVNRAQHQLGEFKTWFQEYMNSKDRRLSPATENKLRLHYRRALRNNTDPYKRAVYCIIGRCDVTDNQSEVADKTEDYLWLKLNQVCFDDDGTSSPQDRLTLSQFQKQLLEDYGESHFTVNQQPFLYFQVLFLTAQFEAAVAFLFRMERLRCHAVHVALVLFELKLLLKSSGQSAQLLSHEPGDPPCLRRLNFVRLLMLYTRKFESTDPREALQYFYFLRDEKDSQGENMFLRCVSELVIESREFDMILGKLENDGSRKPGVIDKFTSDTKPIINKVASVAENKGLFEEAAKLYDLAKNADKVLELMNKLLSPVVPQISAPQSNKERLKNMALSIAERYRAQGISANKFVDSTFYLLLDLITFFDEYHSGHIDRAFDIIERLKLVPLNQESVEERVAAFRNFSDEIRHNLSEVLLATMNILFTQFKRLKGTSPSSSSRPQRVIEDRDSQLRSQARTLITFAGMIPYRTSGDTNARLVQMEVLMN", "values": [{"measurement": "binding", "setting": "[1]", "result": "binds"}, {"measurement": "binding", "setting": "[2]", "result": "binds"}]}
{"molecule": "signal sequence receptor subunit α (protein, UniProt P43307 19-286) VLFRGGPRGLLAVAQDLTEDEETVEDSIIEDEDDEAEVEEDEPTDLVEDKEEEDVSGEPEASPSADTTILFVKGEDFPANNIVKFLVGFTNKGTEDFIVESLDASFRYPQDYQFYIQNFTALPLNTVVPPQRQATFEYSFIPAEPMGGRPFGLVINLNYKDLNGNVFQDAVFNQTVTVIEREDGLDGETIFMYMFLAGLGLLVIVGLHQLLESRKRKRPIQKVEMGTSSQNDVDMSWIPQETLNQINKASPRRLPRKRAQKRSVGSDE", "values": [{"measurement": "binding", "setting": "[1]", "result": "binds"}, {"measurement": "binding", "setting": "[2]", "result": "binds"}]}
